According to the supplement of paper PMC10735217:
Counter-ions that a name gives are not always drawn. Some of the results follow. Repeats in this data set agree poorly, so a single value says little.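 In a drug-repurposing library screen, luminescence reads luciferase driven by eight TEAD-binding elements, stably integrated into human kidney-derived cells. Compounds scoring over five robust Z scores above the plate mean are called hits.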

Test system: HEK293A TEAD-LUC reporter
Test: TEAD-luciferase reporter activity (YAP activation), robust Z score vs plate; higher = stronger YAP/TEAD activation
Details: 24 h

Row | Structure (SMILES) | TEAD-luciferase reporter activity (compound concentration: 200 nM) | TEAD-luciferase reporter activity (compound concentration: 2 uM) | TEAD-luciferase reporter activity (compound concentration: 10 uM)
1 | c1cc2c(c(NC3=NCCN3)c1)CCC2 | inactive: -0.329 | inactive: 0.0864 | inactive: 4.63
2 | C[C@@]1(O)CC[C@@]2(C)[C@@H](CC[C@@H]3C4CC[C@H](C(=O)CSS(=O)(=O)[O-])[C@@]4(C)CC[C@H]32)C1 (some centres undefined) | inactive: -0.77 | inactive: 3.38 | active: 11.9
3 | CC(=O)Nc1cc([As](=O)(O)O)ccc1O | inactive: -0.72 | inactive: 0.941 | inactive: 1.81
4 | O=c1[nH]c2ccccc2n1C1CCN(CCCC(c2ccc(F)cc2)c2ccc(F)cc2)CC1 [pimozide] | inactive: -0.92 | inactive: -0.354 | inactive: 1.56
5 | CN(C)CCNC(=O)C(C)(C)NC(=O)c1cc2c(n(CC3CCCCC3)c1=O)CCCCCC2 | inactive: 0.563 | inactive: 0.995 | inactive: 4.55
6 | CCOCC1C(c2ccc(Cl)c(Cl)c2)C[C@@H]2CC[C@H]1N2C (some centres undefined) | inactive: -0.754 | inactive: 0.298 | inactive: 1.92
7 | CCN(Cc1ccc(Cl)nc1)/C(=C/[N+](=O)[O-])NC [Nitenpyram] | inactive: 2.11 | inactive: 0.7 | inactive: -1.07
8 | COc1ccc(CC2NCCc3cc(OC)c(OC)cc32)cc1OC (centres undefined) | inactive: -0.248 | inactive: 0.717 | inactive: 4.11
9 | C[C@]12Cc3cnn(-c4ccc(F)cc4)c3C=C1CC[C@@H]1[C@@H]2CC[C@@]2(C)[C@H]1CC[C@@]2(O)C#N | inactive: -0.45 | inactive: 1.36 | inactive: 1.31
10 | O=C(O)C1=CCCN(CCOC(c2ccc(C(F)(F)F)cc2)c2ccc(C(F)(F)F)cc2)C1 | inactive: -2.15 | inactive: -1.28 | inactive: 0.714
11 | CC(N)C(=O)O[C@H]1CC[C@H]2[C@@H]3CCc4cc(OC(=O)CN(CCl)CCCl)ccc4[C@H]3CC[C@]12C (some centres undefined) | inactive: -1.95 | inactive: 0.589 | inactive: 4.98
12 | Cc1nnc2n1-c1sc3c(c1C(c1ccccc1Cl)=NC2)CC(C(=O)N1CCOCC1)C3 (centres undefined) | inactive: 0.268 | inactive: -0.482 | inactive: 1.27
13 | CC(C)(C)NCC(O)c1ccc(O)cc1Cl (centres undefined) | inactive: -0.676 | inactive: 1.27 | inactive: -0.789
14 | CCCN(CCC)CCc1ccc(O)c(O)c1 [Dipropyldopamine hydrobromide] | inactive: -0.424 |  | inactive: 4.12
15 | CCCN(CCC)CCc1ccc(O)c(O)c1 |  | inactive: -1.73 | 
16 | C=CCN(C)C(C)(CO)Cc1ccc(Cl)c(Cl)c1 (centres undefined) | inactive: -0.894 | inactive: -0.0793 | inactive: 1.73
17 | C[N+]1(C)[C@@H]2C[C@@H](OC(=O)[C@H](CO)c3ccccc3)C[C@H]1[C@@H]1O[C@@H]12 [Methscopolamine bromide] |  | inactive: 1.22 | 
18 | C[N+]1(C)[C@@H]2C[C@@H](OC(=O)[C@H](CO)c3ccccc3)C[C@H]1[C@@H]1O[C@@H]12 | inactive: -0.778 |  | inactive: -0.786
19 | Clc1ccc(-c2ccc(Cl)cc2Cl)cc1 | inactive: 2.14 | inactive: 2.54 | inactive: 1.48

Given as labelled records: entries from further up
CCCN(CCC)CCc1ccc(O)c(O)c1
  TEAD-luciferase reporter activity (compound concentration: 2 uM): inactive: -1.73
C=CCN(C)C(C)(CO)Cc1ccc(Cl)c(Cl)c1 (centres undefined)
  TEAD-luciferase reporter activity (compound concentration: 200 nM): inactive: -0.894; TEAD-luciferase reporter activity (compound concentration: 2 uM): inactive: -0.0793; TEAD-luciferase reporter activity (compound concentration: 10 uM): inactive: 1.73

Next entries:

Row | Structure (SMILES) | TEAD-luciferase reporter activity (compound concentration: 200 nM) | TEAD-luciferase reporter activity (compound concentration: 2 uM) | TEAD-luciferase reporter activity (compound concentration: 10 uM)
20 | OC1(c2ccc(-c3ccc4ncccc4c3)cc2)CN2CCC1CC2 (centres undefined) | inactive: -1.53 | inactive: -0.119 | inactive: 2.48
21 | COC1C(O)[C@@H](O[C@H]2CC[C@@]3(C=O)[C@H](CC[C@@H]4[C@@H]3CC[C@]3(C)[C@@H](C5=CC(=O)OC5)CC[C@]43O)C2)OC(C)[C@H]1O (some centres undefined) [Peruvoside] | active: 25.5 | inactive: -2.4 | active: 6.65
22 | Oc1ccc2c3c1O[C@H]1[C@@H](O)CC[C@@]4(O)[C@@H](C2)N(CC2CCC2)CC[C@]314 [Nalbuphine HCl] | inactive: 0.711 |  | inactive: -0.777
23 | Oc1ccc2c3c1O[C@H]1[C@@H](O)CC[C@@]4(O)[C@@H](C2)N(CC2CCC2)CC[C@]314 [Nalbuphine hydrochloride] |  | inactive: -0.349 | 
24 | CC[C@H]1CN2CC[C@H]1C[C@H]2[C@H](O)c1ccnc2ccc(OC)cc12 | inactive: -1.9 | inactive: -0.217 | active: 6.32
25 | CCn1cc2c3c(cccc31)C1CC(NC(=O)n3nc(C)cc3C)CN(C)C1C2 (centres undefined) | inactive: 1.93 | inactive: 0.0851 | inactive: -1.06
26 | OC(O)C(Cl)(Cl)Cl [chloral hydrate, MacroChem] | inactive: 0.0289 | inactive: -0.449 | inactive: 2.54
27 | CC1=C(C)C(=O)C(CC[C@](C)(O)CCC[C@H](C)CCC[C@H](C)CCCC(C)C)=C(C)C1=O [alpha-Tocopherolqui] | inactive: -0.198 | inactive: -0.3 | inactive: 1.24
28 | CC1(C)CC(O)CC(C)(C)N1[O] [Tempol] |  | inactive: -0.732 | 
29 | CC1(C)CC(O)CC(C)(C)N1[O] | inactive: -0.804 |  | inactive: 1.65
30 | CC(C(=O)O[C@H]1C[N+]2(CCc3ccc(F)cc3)CCC1CC2)(c1ccccc1)N1CCCCC1 (some centres undefined) | inactive: 0.823 | inactive: 0.15 | inactive: 0.0242
31 | CC12CC[C@H]3[C@@H](CC[C@H]4C[C@H](N)[C@@H](O)CC43C)[C@@H]1CCC2=O (some centres undefined) | inactive: -0.836 | inactive: -0.387 | inactive: 0.693
32 | CCCCCCCCCCC(=O)O[C@H]1CC[C@H]2[C@@H]3CCC4=CC(=O)CC[C@]4(C)[C@H]3CC[C@]12C [testosterone undecanoate] | inactive: -1.71 | inactive: 1.26 | inactive: -0.328
33 | CCC(=O)N(c1ccc(Cl)c(Cl)c1)[C@@H]1CCC[C@H]1N(C)C [eclanamine] | inactive: -0.872 | inactive: -1.24 | inactive: -1.75
34 | C[N+]1(CCF)C2CCC1CC(OC(=O)C(O)(c1ccccc1)c1ccccc1)C2 (centres undefined) | inactive: 3.2 | inactive: -1.51 | inactive: 1.16
35 | CCC(C)CC(C)N (centres undefined) | inactive: -0.376 | inactive: -0.242 | inactive: -0.803
36 | Cc1ccc(C2C(=O)NC(=O)NC2=O)cc1 | inactive: -0.601 | inactive: 0.0565 | inactive: 2.12
37 | NC1=NCC(c2ccc(Cl)cc2)O1 (centres undefined) | inactive: -0.28 | inactive: -1.69 | inactive: -0.261
38 | O=C(O[C@H]1CN2CCC1CC2)N(Cc1cc(F)c(F)c(F)c1)c1cccc(F)c1 [tarafenacin] | inactive: -0.836 | inactive: -0.0305 | inactive: -0.234

Just TEAD-luciferase reporter activity (compound concentration: 10 uM), for some of the entries so far:
Row,Structure (SMILES),TEAD-luciferase reporter activity (compound concentration: 10 uM)
33,CCC(=O)N(c1ccc(Cl)c(Cl)c1)[C@@H]1CCC[C@H]1N(C)C [eclanamine],inactive: -1.75
34,C[N+]1(CCF)C2CCC1CC(OC(=O)C(O)(c1ccccc1)c1ccccc1)C2 (centres undefined),inactive: 1.16
35,CCC(C)CC(C)N (centres undefined),inactive: -0.803
36,Cc1ccc(C2C(=O)NC(=O)NC2=O)cc1,inactive: 2.12
37,NC1=NCC(c2ccc(Cl)cc2)O1 (centres undefined),inactive: -0.261

The results go on.

Row | Structure (SMILES) | TEAD-luciferase reporter activity (compound concentration: 200 nM) | TEAD-luciferase reporter activity (compound concentration: 2 uM) | TEAD-luciferase reporter activity (compound concentration: 10 uM)
39 | Clc1ccc([C@]23CNC[C@H]2C3)cc1Cl [Amitifadine] | inactive: -0.795 | inactive: 0.604 | inactive: 4.33
40 | CCOc1ccc2c3c1O[C@H]1[C@@H](O)C=C[C@H]4[C@@H](C2)N(C)CC[C@@]341 [Ethylmorphine] | inactive: 1.46 |  | inactive: -0.0979
41 | Cc1cc2c(C(F)(F)F)c(C#N)ccc2n1Cc1noc(-c2cccc(C(F)(F)F)c2)n1 | inactive: -1.63 | inactive: -0.876 | inactive: -0.136
42 | COc1ccc2[nH]c(=O)n(C(=O)O[C@H]3C[C@H]4CC[C@@H](C3)N4C)c2c1 | inactive: 0.281 | inactive: -1.32 | inactive: 2.11
43 | O=c1[nH]c2ccccc2n1C1CCN(CCCc2noc3cc(F)ccc23)CC1 [neflumozide] | inactive: 0.0638 | inactive: -1.13 | inactive: -1.6
44 | C/C1=C/C[C@@H](/C(C)=C/c2csc(C)n2)OC(=O)C[C@H](O)C(C)(C)C(=O)[C@H](C)[C@@H](O)[C@@H](C)CCC1 [Desoxyepothilone B] | inactive: -3.8 | inactive: -0.13 | inactive: -0.256
45 | C[N+]1([O-])C2CCC1CC(OC(=O)C(CO)c1ccccc1)C2 (centres undefined) | inactive: -1.96 | inactive: -0.604 | inactive: 0.132
46 | CN(C)C(=O)c1cncc(-c2cn(CC3(F)CCOCC3)c(C(C)(C)C)n2)n1 | inactive: -0.0165 | inactive: 1.61 | inactive: 0.448
47 | CN1CC[C@]23CCCC[C@H]2[C@H]1Cc1ccc(O)cc13 (stereo in doubt) | inactive: -1.29 |  | inactive: -2.54
48 | CC1CNS(=O)(=O)N(c2ccc3c(C#N)nccc3c2)C1 (centres undefined) | inactive: 0.178 | inactive: 0.0589 | inactive: -0.77
49 | Cn1cc(CCN2CCN(c3ccccc3Cl)CC2)cn1 | inactive: -2.63 | inactive: 0.973 | inactive: 2.67
50 | CCNCC(O)c1cccc(O)c1 (centres undefined) |  | inactive: -0.361 | 
51 | CCNCC(O)c1cccc(O)c1 (centres undefined) [etilefrine] | inactive: -0.557 |  | inactive: 0.892
52 | Cc1nc2ccccc2c(=O)n1-c1ccccc1Cl | inactive: -1.35 | inactive: -1.95 | inactive: 4.58
53 | C=C1CC2(CCNCC2)OC1C (centres undefined) | inactive: -0.94 | inactive: -2.42 | inactive: 0.462
54 | CC(C)(C)C(=O)OC1N=C(c2ccccc2)c2cc(Cl)ccc2NC1=O (centres undefined) | inactive: 0.0327 | inactive: -0.933 | inactive: -1.45
55 | CC(Cc1ccccc1)[n+]1cc(/N=C(\[O-])Nc2ccccc2)on1 (centres undefined) | inactive: -1.21 | inactive: -0.707 | inactive: -0.622
56 | Cn1c(CCCC(=O)O)nc2cc(N(CCCl)CCCl)ccc21 [Bendamustine hydrochloride] | inactive: -0.262 | inactive: -1.16 | inactive: 2.36
57 | CCSSCC12CCC(=O)C=C1CC[C@H]1[C@@H]3CCC(=O)C3(C)CC[C@@H]12 (some centres undefined) | inactive: -0.508 | inactive: -1.59 | inactive: -1.1
